Measurements: patent US20040063662A1, “Selenophene anti-tumor agents” (priority 1996, published 2004)

System: panel of sixty different human tumor cell lines
Experiment: NCI human tumor cell panel: whole panel (mean graph summary)
Settings: for Delta Log10 TGI: line Delta; for Range Log10 TGI: line Range

Compound	Delta Log10 TGI	Range Log10 TGI
O=Cc1ccc(-c2ccc(-c3cccs3)[se]2)s1 [NSC 675346]	−4.42	3.13^
O=Cc1ccc(-c2ccc(-c3ccc(C=O)[se]3)s2)[se]1 [NSC 676630]	−4.17	2.18^
O=Cc1ccc(-c2ccc(-c3ccc[se]3)[se]2)[se]1 [NSC 675244]	−4.78	1.37
OCc1ccc(-c2ccc(-c3cccs3)[se]2)s1 [NSC 675344]	3.46	4.00
O=Cc1ccc(-c2ccc(-c3ccc(C=O)[se]3)[se]2)[se]1 [NSC 675245]	−4.18	1.91^
O=Cc1ccc(-c2ccc(-c3ccc(C=O)s3)[se]2)s1 [NSC 675345]	−4.21	1.61^
